According to publication PMC11672250:
These are yes or no findings as the source states them, for the method shown. Binding seen in cells or lysates may run through a third protein. Some binding calls cover weakened binding; strength is not graded here.

The chains behind the UniProt entries cited, without tags or fusion partners. Residues count along the entry.
UniProt P25705, residues 44-553: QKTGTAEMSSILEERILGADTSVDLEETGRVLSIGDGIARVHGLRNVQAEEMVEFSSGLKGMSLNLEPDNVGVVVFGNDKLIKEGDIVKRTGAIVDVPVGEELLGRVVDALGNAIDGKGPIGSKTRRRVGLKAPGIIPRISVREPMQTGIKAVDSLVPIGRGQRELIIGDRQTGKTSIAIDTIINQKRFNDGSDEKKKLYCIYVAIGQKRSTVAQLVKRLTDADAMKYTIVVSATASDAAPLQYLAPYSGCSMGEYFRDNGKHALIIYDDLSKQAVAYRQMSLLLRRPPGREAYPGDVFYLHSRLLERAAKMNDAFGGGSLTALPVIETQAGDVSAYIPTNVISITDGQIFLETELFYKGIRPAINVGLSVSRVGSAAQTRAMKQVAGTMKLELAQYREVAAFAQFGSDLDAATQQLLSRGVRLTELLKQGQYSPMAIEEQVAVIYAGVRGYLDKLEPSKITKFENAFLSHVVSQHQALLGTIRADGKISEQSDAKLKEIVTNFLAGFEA
UniProt Q07912: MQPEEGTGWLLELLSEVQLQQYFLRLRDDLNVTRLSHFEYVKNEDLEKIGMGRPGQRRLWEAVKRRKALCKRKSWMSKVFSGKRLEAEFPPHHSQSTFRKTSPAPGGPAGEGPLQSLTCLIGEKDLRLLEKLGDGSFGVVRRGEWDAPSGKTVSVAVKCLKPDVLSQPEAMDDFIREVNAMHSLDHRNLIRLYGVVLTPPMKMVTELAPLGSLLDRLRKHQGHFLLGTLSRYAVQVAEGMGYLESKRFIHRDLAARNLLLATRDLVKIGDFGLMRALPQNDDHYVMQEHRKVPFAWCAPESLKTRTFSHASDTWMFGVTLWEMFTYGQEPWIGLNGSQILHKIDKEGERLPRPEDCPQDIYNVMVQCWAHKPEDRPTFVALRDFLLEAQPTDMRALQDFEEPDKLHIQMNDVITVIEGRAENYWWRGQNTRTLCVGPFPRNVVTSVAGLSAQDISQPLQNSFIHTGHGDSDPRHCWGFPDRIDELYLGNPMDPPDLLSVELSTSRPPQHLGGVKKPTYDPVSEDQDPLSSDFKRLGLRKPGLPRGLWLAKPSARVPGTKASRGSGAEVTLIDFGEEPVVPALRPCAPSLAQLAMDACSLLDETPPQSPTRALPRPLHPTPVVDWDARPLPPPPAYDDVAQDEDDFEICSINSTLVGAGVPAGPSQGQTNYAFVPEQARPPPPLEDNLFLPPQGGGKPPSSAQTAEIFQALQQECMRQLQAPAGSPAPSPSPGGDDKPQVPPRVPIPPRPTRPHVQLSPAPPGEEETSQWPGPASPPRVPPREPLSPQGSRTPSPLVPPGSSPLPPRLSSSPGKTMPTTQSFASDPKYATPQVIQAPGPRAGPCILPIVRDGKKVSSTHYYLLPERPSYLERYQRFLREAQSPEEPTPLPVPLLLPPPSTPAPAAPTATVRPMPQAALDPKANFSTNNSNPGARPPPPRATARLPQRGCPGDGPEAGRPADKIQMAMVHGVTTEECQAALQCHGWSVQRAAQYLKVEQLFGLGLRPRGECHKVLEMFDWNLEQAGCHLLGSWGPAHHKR

Biological target: ATP synthase F1 subunit ATP5F1A (human (endogenous in PC3 and C4-2)) (UniProt P25705)
Assay: co-IP; endogenous proteins in PC3 and C4-2 lysates (EBC buffer: 50 mM Tris-HCl, 120 mM NaCl, 0.5% NP-40), primary antibody and protein A/G agarose, washed with NETN buffer, Western blot; cells with SFT2D2-TBX19 knockdown or overexpression, with or without docetaxel

binding: binds
Substance: TNK2/ACK1 (from UniProt Q07912 1-1038) (enzyme)
